Source: PubChem BioAssay AID1259308 (NCATS, 2017)
Aim: 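Candidate targets for better recombinant protein yield in mammalian cells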 (primary screen). Cell system: human HEK293 embryonic kidney cells stably expressing firefly luciferase (HEK-CMV-Luc2-Hygro). Reagents: single siRNA against human genes, 0.8 pmol siRNA per well. Duration: 72 h. Read-out: 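Reporter luminescence and viable-cell signal on separate replicate plates, given as percent of non-targeting control and median/MAD z-scores, plus per-cell luciferase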. Direction: total luciferase, z-score and total luciferase, % of control: higher = more reporter protein produced; luciferase per cell, z-score: higher = more reporter output per viable cell; viable cells, % of control: higher = more viable cells. Call rule: 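An siRNA counts as active if its total luciferase robust z-score exceeds 3; genes with two or more such siRNAs out of three were retested with fresh siRNAs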. Calls: active = raised luciferase; inactive = no rise.
The whole screen tested about 59,000 reagents; below is an unselected part. In the full data, about 1,510 (2.6%) were called active. 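Calls use total luciferase alone and ignore viability, so some active siRNAs may act by altering cell number.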 Reagents against one gene are numbered here.

no.	target	reagent	total luciferase, z-score	total luciferase, % of control	luciferase per cell, z-score	viable cells, % of control	Outcome
1	GRIA3	1	-0.553	70.9	-0.497	90.3	inactive
2	GRIA3	2	-2.79	26.4	-3.49	74.1	inactive
3	GRIA3	3	-0.764	66.7	-1.08	99	inactive
4	MOAP1	1	1.21	106	0.706	98.4	inactive
5	MOAP1	2	0.115	84.2	-0.537	108	inactive
6	MOAP1	3	-0.383	74.3	-0.266	89	inactive
7	TRA2B	1	1.94	120	0.675	113	inactive
8	TRA2B	2	0.158	85	-0.253	102	inactive
9	TRA2B	3	3.65	154	2.81	82.3	active
10	HSPB6	1	1.15	105	1.62	76.3	inactive
11	HSPB6	2	-0.24	77.1	-0.675	103	inactive
12	HSPB6	3	0.408	90	-0.295	109	inactive
13	LINC00847	1	3.4	149	2.35	90	active
14	LINC00847	2	1.2	106	0.563	102	inactive
15	LINC00847	3	0.561	93	0.534	90.3	inactive
16	LTA	1	-0.258	76.7	0.18	81.8	inactive
17	LTA	2	0.361	89.1	0.372	90.2	inactive
18	LTA	3	-0.3	75.9	-0.279	91.3	inactive
19	SNRNP27	1	1.11	104	0.703	96.6	inactive
20	SNRNP27	2	-0.128	79.3	-0.099	91	inactive
21	SNRNP27	3	0.00337	82	0.269	85.3	inactive
22	FAM107B	1	-0.899	64	-1.14	96.7	inactive
23	FAM107B	2	-0.939	63.2	-0.377	78	inactive
24	FAM107B	3	-0.468	72.6	-0.266	87	inactive
25	CAPZA2	1	-1	62	-1.43	101	inactive
26	CAPZA2	2	-1.06	60.9	-1.29	95.5	inactive
27	CAPZA2	3	-0.484	72.3	-1.44	118	inactive
28	BAX	1	0.322	88.3	0.631	83.5	inactive
29	BAX	2	1.04	103	0.07	112	inactive
30	BAX	3	0.184	85.6	-0.0481	96.8	inactive
31	GSTA3	1	0.309	88	-0.163	103	inactive
32	GSTA3	2	-1.64	49.4	-2.05	94.6	inactive
33	GSTA3	3	1.81	118	0.747	108	inactive
34	PSTK	1	-1.38	54.4	-1.05	80.1	inactive
35	PSTK	2	1.37	109	1.1	91.4	inactive
36	PSTK	3	-0.793	66.1	-0.897	93.6	inactive
37	PXMP4	1	2.15	125	1.21	101	inactive
38	PXMP4	2	0.264	87.1	-0.0723	99.2	inactive
39	PXMP4	3	0.17	85.3	0.473	84.1	inactive

A portion from the list above:
no.	target	reagent	total luciferase, z-score	total luciferase, % of control	luciferase per cell, z-score	viable cells, % of control	Outcome
17	LTA	2	0.361	89.1	0.372	90.2	inactive
18	LTA	3	-0.3	75.9	-0.279	91.3	inactive
19	SNRNP27	1	1.11	104	0.703	96.6	inactive
